{"source": "patent US20240172759A1", "about": "“FORMULATION COMPRISING CHLORITE AND PERCARBONATE SALTS” (ASEPTIC HEALTH, LLC, priority 2021, published 2024)", "test_system": "Pseudomonas aeruginosa ATCC 27853", "test": "Minimum inhibitory concentration (MIC) broth dilution assay", "assay_type": "cell-based", "settings": "MIC given as dilution of the stated solution; serial 1:2 dilutions, 10^6 CFU, growth read after 16 to 24 hours", "note": "At least one compound was matched to its structure with a doubt left.", "data": [{"smiles": "O=C([O-])[O-].O=C([O-])[O-].OO.OO.OO.[Na+].[Na+].[Na+].[Na+]", "note": "[0.5% Sodium Percarbonate, Sodium Percarbonate]", "values": [{"measurement": "MIC against Pseudomonas aeruginosa ATCC 27853", "value": "1:8"}]}]}
